# The supplement of paper PMC8728848
# This is one part of the list.
# Tests used:
# Assay in all cases: glycan array binding signal (z-score within array); higher = stronger binding
# Settings in all cases: glycan notation: IUPAC condensed, linker removed
# Neu5Ac(a2-3)GalNAc = biological target: Neu5Ac(a2-3)GalNAc
# Summary of the method: (§1)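 The Consortium for Functional Glycomics database supplied 3228 glycan arrays, of which those lacking an available protein sequence were dropped. The binding signal, a within-array Z-score, was averaged across arrays of the same protein sequence and across linkers. Negative scores can be read as non-binding.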
# [1] = biological target: Neu5Ac(a2-3)GalNAc(b1-4)GlcNAc
# Summary of the method: as §1
# [2] = biological target: Neu5Ac(a2-3)[GalNAc(b1-4)]Gal(b1-4)Glc
# Summary of the method: as §1
# [3] = biological target: Neu5Ac(a2-3)[GalNAc(b1-4)]Gal(b1-4)GlcNAc
# Summary of the method: as §1
# [4] = biological target: Neu5Ac(a2-3)[GalNAc(b1-4)]Gal(b1-4)GlcNAc(b1-3)GalNAc
# Summary of the method: as §1
# [5] = biological target: Neu5Ac(a2-3)[Neu5Ac(a2-6)]GalNAc
# Summary of the method: as §1
# Neu5Ac(a2-6)Gal = biological target: Neu5Ac(a2-6)Gal
# Summary of the method: as §1
# [6] = biological target: Neu5Ac(a2-6)Gal(b1-3)GlcNAc(b1-3)[Gal(b1-4)GlcNAc(b1-6)]Gal(b1-4)Glc
# Summary of the method: as §1
# Neu5Ac(a2-6)Gal(b1-4)Glc = biological target: Neu5Ac(a2-6)Gal(b1-4)Glc
# Summary of the method: as §1
# [7] = biological target: Neu5Ac(a2-6)Gal(b1-4)GlcNAc
# Summary of the method: as §1
# [8] = biological target: Neu5Ac(a2-6)Gal(b1-4)GlcNAc(b1-2)Man
# Summary of the method: as §1
# [9] = biological target: Neu5Ac(a2-6)Gal(b1-4)GlcNAc(b1-2)Man(a1-3)Man(b1-4)GlcNAc(b1-4)GlcNAc
# Summary of the method: as §1
# [10] = biological target: Neu5Ac(a2-6)Gal(b1-4)GlcNAc(b1-2)Man(a1-3)[Gal(b1-4)GlcNAc(b1-2)Man(a1-6)]Man(b1-4)GlcNAc(b1-4)GlcNAc
# Summary of the method: as §1
# [11] = biological target: Neu5Ac(a2-6)Gal(b1-4)GlcNAc(b1-2)Man(a1-3)[GlcNAc(b1-2)Man(a1-6)]Man(b1-4)GlcNAc(b1-4)GlcNAc
# Summary of the method: as §1
# [12] = biological target: Neu5Ac(a2-6)Gal(b1-4)GlcNAc(b1-2)Man(a1-3)[GlcNAc(b1-4)][Neu5Ac(a2-6)Gal(b1-4)GlcNAc(b1-2)Man(a1-6)]Man(b1-4)GlcNAc(b1-4)GlcNAc
# Summary of the method: as §1
# [13] = biological target: Neu5Ac(a2-6)Gal(b1-4)GlcNAc(b1-2)Man(a1-3)[Man(a1-6)]Man(b1-4)GlcNAc(b1-4)GlcNAc
# Summary of the method: as §1
# [14] = biological target: Neu5Ac(a2-6)Gal(b1-4)GlcNAc(b1-2)Man(a1-3)[Neu5Ac(a2-3)Gal(b1-4)GlcNAc(b1-2)Man(a1-6)]Man(b1-4)GlcNAc(b1-4)GlcNAc
# Summary of the method: as §1
# [15] = biological target: Neu5Ac(a2-6)Gal(b1-4)GlcNAc(b1-2)Man(a1-3)[Neu5Ac(a2-6)Gal(b1-4)GlcNAc(b1-2)Man(a1-6)]Man(b1-4)GlcNAc(b1-4)GlcNAc
# Summary of the method: as §1
# [16] = biological target: Neu5Ac(a2-6)Gal(b1-4)GlcNAc(b1-2)Man(a1-3)[Neu5Ac(a2-6)Gal(b1-4)GlcNAc(b1-2)Man(a1-6)]Man(b1-4)GlcNAc(b1-4)[Fuc(a1-6)]GlcNAc
# Summary of the method: as §1
# [17] = biological target: Neu5Ac(a2-6)Gal(b1-4)GlcNAc(b1-2)Man(a1-6)Man(b1-4)GlcNAc(b1-4)GlcNAc
# Summary of the method: as §1
# [18] = biological target: Neu5Ac(a2-6)Gal(b1-4)GlcNAc(b1-2)Man(a1-6)[Gal(b1-4)GlcNAc(b1-2)Man(a1-3)]Man(b1-4)GlcNAc(b1-4)GlcNAc
# Summary of the method: as §1
# [19] = biological target: Neu5Ac(a2-6)Gal(b1-4)GlcNAc(b1-2)Man(a1-6)[GlcNAc(b1-2)Man(a1-3)]Man(b1-4)GlcNAc(b1-4)GlcNAc
# Summary of the method: as §1
# [20] = biological target: Neu5Ac(a2-6)Gal(b1-4)GlcNAc(b1-2)Man(a1-6)[Man(a1-3)]Man(b1-4)GlcNAc(b1-4)GlcNAc
# Summary of the method: as §1
# [21] = biological target: Neu5Ac(a2-6)Gal(b1-4)GlcNAc(b1-2)[Neu5Ac(a2-6)Gal(b1-4)GlcNAc(b1-4)]Man(a1-3)[GlcNAc(b1-4)][Neu5Ac(a2-6)Gal(b1-4)GlcNAc(b1-2)[Neu5Ac(a2-6)Gal(b1-4)GlcNAc(b1-6)]Man(a1-6)]Man(b1-4)GlcNAc(b1-4)GlcNAc
# Summary of the method: as §1
# [22] = biological target: Neu5Ac(a2-6)Gal(b1-4)GlcNAc(b1-2)[Neu5Ac(a2-6)Gal(b1-4)GlcNAc(b1-4)]Man(a1-3)[GlcNAc(b1-4)][Neu5Ac(a2-6)Gal(b1-4)GlcNAc(b1-4)Man(a1-6)]Man(b1-4)GlcNAc(b1-4)GlcNAc
# Summary of the method: as §1
# [23] = biological target: Neu5Ac(a2-6)Gal(b1-4)GlcNAc(b1-2)[Neu5Ac(a2-6)Gal(b1-4)GlcNAc(b1-6)]Man(a1-6)[Neu5Ac(a2-6)Gal(b1-4)GlcNAc(b1-2)Man(a1-3)][GlcNAc(b1-4)]Man(b1-4)GlcNAc(b1-4)GlcNAc
# Summary of the method: as §1
# [24] = biological target: Neu5Ac(a2-6)Gal(b1-4)GlcNAc(b1-3)Gal(b1-3)GlcNAc
# Summary of the method: as §1
# [25] = biological target: Neu5Ac(a2-6)Gal(b1-4)GlcNAc(b1-3)Gal(b1-4)GlcNAc
# Summary of the method: as §1
# [26] = biological target: Neu5Ac(a2-6)Gal(b1-4)GlcNAc(b1-3)Gal(b1-4)GlcNAc(b1-2)Man(a1-3)[Neu5Ac(a2-6)Gal(b1-4)GlcNAc(b1-3)Gal(b1-4)GlcNAc(b1-2)Man(a1-6)]GalNAc
# Summary of the method: as §1
# [27] = biological target: Neu5Ac(a2-6)Gal(b1-4)GlcNAc(b1-3)Gal(b1-4)GlcNAc(b1-3)Gal(b1-4)GlcNAc
# Summary of the method: as §1
# [28] = biological target: Neu5Ac(a2-6)Gal(b1-4)GlcNAc(b1-3)Gal(b1-4)GlcNAc(b1-3)Gal(b1-4)GlcNAc(b1-2)Man(a1-3)[Neu5Ac(a2-6)Gal(b1-4)GlcNAc(b1-3)Gal(b1-4)GlcNAc(b1-3)Gal(b1-4)GlcNAc(b1-2)Man(a1-6)]GalNAc
# Summary of the method: as §1
# [29] = biological target: Neu5Ac(a2-6)Gal(b1-4)GlcNAc(b1-3)Gal(b1-4)GlcNAc(b1-3)GalNAc
# Summary of the method: as §1
# [30] = biological target: Neu5Ac(a2-6)Gal(b1-4)GlcNAc(b1-3)Gal(b1-4)GlcNAc(b1-3)[Neu5Ac(a2-6)Gal(b1-4)GlcNAc(b1-3)Gal(b1-4)GlcNAc(b1-6)]GalNAc
# Summary of the method: as §1
# [31] = biological target: Neu5Ac(a2-6)Gal(b1-4)GlcNAc(b1-3)Gal(b1-4)GlcNAc(b1-6)[Gal(b1-3)]GalNAc
# Summary of the method: as §1
# [32] = biological target: Neu5Ac(a2-6)Gal(b1-4)GlcNAc(b1-3)Gal(b1-4)[Fuc(a1-3)]GlcNAc(b1-3)Gal(b1-4)[Fuc(a1-3)]GlcNAc
# Summary of the method: as §1
# [33] = biological target: Neu5Ac(a2-6)Gal(b1-4)GlcNAc(b1-3)GalNAc
# Summary of the method: as §1
# [34] = biological target: Neu5Ac(a2-6)Gal(b1-4)GlcNAc(b1-3)[Neu5Ac(a2-6)Gal(b1-4)GlcNAc(b1-6)]GalNAc
# Summary of the method: as §1
binder,measurement,setting,value
PX14343I-pdi-501-30-501 (Parabacteroides distasonis) (protein) SDQYSTETFWKTKEHASAGIMGCYNALKLWRSLHTMEFDMLTANAMPYNEANGTQAIGKGEHLSTTALIGSLWKNCYVGIGRTNTFIANVGGVDMDESEKAKMVGEAKFLRAFYYLSLVDKFGGVPLIIDAPNADEQAELPRNSKEEVVNQIVKDLEEAAAVLPDTYASSDLGRATKGAALALKARTLLYNSRWAEAAQAAKQVMESGVYQLFNDYRHFFSEDNKYNCEVIFDIEAKLPEYPTDYDQNIWRLNRPAPLKELVDTYLCVDGKTIEESPLYDPTRPYENRDPRLLKSIVCIGYPYLGKTITKEDVATTGFGVKKYTSYEDDVTIPLVERSAFNFILIRYAEVLLTYAEAQNEASGPDQSVYDAINQLRRRPDINMPEVPKGLTKDQMREVIRRERRIELTFEGLYYSDILRWKTAEKENNGMMHNYEGIEVVKRSFNPKRDYLWPIPYNQTVLNPNLEQNPNWD,glycan array binding signal (z-score),Neu5Ac(a2-3)GalNAc,-0.086
same,glycan array binding signal (z-score),[1],-0.643
same,glycan array binding signal (z-score),[2],-0.437
same,glycan array binding signal (z-score),[3],-0.34
same,glycan array binding signal (z-score),[4],0.034
same,glycan array binding signal (z-score),[5],-0.513
same,glycan array binding signal (z-score),Neu5Ac(a2-6)Gal,-0.303
same,glycan array binding signal (z-score),[6],-0.338
same,glycan array binding signal (z-score),Neu5Ac(a2-6)Gal(b1-4)Glc,-0.739
same,glycan array binding signal (z-score),[7],-0.2
same,glycan array binding signal (z-score),[8],1.01
same,glycan array binding signal (z-score),[9],0.757
same,glycan array binding signal (z-score),[10],0.164
same,glycan array binding signal (z-score),[11],-1
same,glycan array binding signal (z-score),[12],0.248
same,glycan array binding signal (z-score),[13],-0.404
same,glycan array binding signal (z-score),[14],0.718
same,glycan array binding signal (z-score),[15],-0.539
same,glycan array binding signal (z-score),[16],-0.714
same,glycan array binding signal (z-score),[17],0.027
same,glycan array binding signal (z-score),[18],-0.927
same,glycan array binding signal (z-score),[19],-0.638
same,glycan array binding signal (z-score),[20],-0.837
same,glycan array binding signal (z-score),[21],-0.632
same,glycan array binding signal (z-score),[22],-0.155
same,glycan array binding signal (z-score),[23],0.059
same,glycan array binding signal (z-score),[24],0.012
same,glycan array binding signal (z-score),[25],-0.597
same,glycan array binding signal (z-score),[26],-0.584
same,glycan array binding signal (z-score),[27],0.553
same,glycan array binding signal (z-score),[28],2.21
same,glycan array binding signal (z-score),[29],-0.954
same,glycan array binding signal (z-score),[30],0.627
same,glycan array binding signal (z-score),[31],0.989
same,glycan array binding signal (z-score),[32],-0.241
same,glycan array binding signal (z-score),[33],-0.688
same,glycan array binding signal (z-score),[34],0.219

# Exported bar-delimited: entries from further up.
binder | measurement | setting | value
PX14343I-pdi-501-30-501 (Parabacteroides distasonis) (protein) SDQYSTETFWKTKEHASAGIMGCYNALKLWRSLHTMEFDMLTANAMPYNEANGTQAIGKGEHLSTTALIGSLWKNCYVGIGRTNTFIANVGGVDMDESEKAKMVGEAKFLRAFYYLSLVDKFGGVPLIIDAPNADEQAELPRNSKEEVVNQIVKDLEEAAAVLPDTYASSDLGRATKGAALALKARTLLYNSRWAEAAQAAKQVMESGVYQLFNDYRHFFSEDNKYNCEVIFDIEAKLPEYPTDYDQNIWRLNRPAPLKELVDTYLCVDGKTIEESPLYDPTRPYENRDPRLLKSIVCIGYPYLGKTITKEDVATTGFGVKKYTSYEDDVTIPLVERSAFNFILIRYAEVLLTYAEAQNEASGPDQSVYDAINQLRRRPDINMPEVPKGLTKDQMREVIRRERRIELTFEGLYYSDILRWKTAEKENNGMMHNYEGIEVVKRSFNPKRDYLWPIPYNQTVLNPNLEQNPNWD | glycan array binding signal (z-score) | [7] | -0.2
same | glycan array binding signal (z-score) | [8] | 1.01
